Assay [1] concerns the target T1, recombinant CHO TEM-1 Fc fusion protein (UniProt Q9HCU0).
T1 sequence (looked up): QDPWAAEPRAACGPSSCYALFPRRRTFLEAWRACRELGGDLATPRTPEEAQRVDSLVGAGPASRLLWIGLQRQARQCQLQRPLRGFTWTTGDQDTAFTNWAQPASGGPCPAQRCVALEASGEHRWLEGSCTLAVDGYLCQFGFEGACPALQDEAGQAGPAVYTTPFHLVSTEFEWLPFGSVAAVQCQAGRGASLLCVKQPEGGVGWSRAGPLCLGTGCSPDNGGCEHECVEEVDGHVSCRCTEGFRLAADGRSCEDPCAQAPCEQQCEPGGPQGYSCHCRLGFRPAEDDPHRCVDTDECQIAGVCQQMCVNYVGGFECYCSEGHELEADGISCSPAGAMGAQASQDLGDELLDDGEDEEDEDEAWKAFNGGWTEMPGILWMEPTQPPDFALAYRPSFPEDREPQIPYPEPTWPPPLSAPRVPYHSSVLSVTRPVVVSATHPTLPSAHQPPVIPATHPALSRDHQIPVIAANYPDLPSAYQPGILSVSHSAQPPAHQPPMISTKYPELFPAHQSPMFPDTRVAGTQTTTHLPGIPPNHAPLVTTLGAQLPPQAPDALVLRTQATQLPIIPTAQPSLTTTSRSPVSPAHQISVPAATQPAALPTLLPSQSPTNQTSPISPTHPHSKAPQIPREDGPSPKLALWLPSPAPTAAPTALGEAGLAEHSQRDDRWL
Kind of assay: ECL sandwich assay on streptavidin plate: biotin-9G5 capture, sulfo-TAG-15F8 detection, TEM-1-Fc standard titrated.

Assay [2] concerns the target T1, recombinant CHO TEM-1 Fc fusion protein. Kind of assay: ECL sandwich assay on streptavidin plate, TEM-1 Fc fusion protein as calibrator.

Results are given in words; binding and its absence hold for the method and conditions named. Some results given as binding are weak or reduced against the parent protein; the word gives no strength. Sequences can lack the tags named with a protein.

B1: Antibody 15F8 (antibody, V domains shown)
VH: EVQLVESGGGLVQPGRSMKLSCSASGFTFRNYYMAWVRQAPTRGLEWVASTGTGGDFTYYRDSVKGRFTISRDTAENTLYLQMDSLRSEDTATYYCARAYGYFDYWGQGVKVTVSS
VL: DIVLTQSPTTLSVTPGETVSLSCRASHSVGTNLHWYQQKPNESPRLLIKYVSQSNSGIPSRFSASGSGTDFTLNIKNVEFNDVSSYFCQQTQSWPLTFGAGTKLEIK
notes: Rat monoclonal antibody from hybridoma, IgG2a/kappa; also called 15F8.G6.B4; ATCC PTA-12540
As to B1, the binding result in assay [1] and in assay [2] was “binds” each time.

B2: Antibody 9G5 (antibody, V domains shown)
VH: EVKLEESGGGLVQPGMSVKLSCATSGFTFSDYWMEWVRQAPGKGLEWVAEIRNKLNNYVTNYGKPVRGRFTISRDDSKSIVYLQVNSIRSEDTGIYYCTRIQRVITTGEYFDYWGQGVMVTVSS
VL: DIQMTQSPSLLSASEGDRVTLSCKASQNIYKYLNWYQQKLGEAPKLLIYNINNLQTGIPSRFSGSGSGTDFTLTISSLQPEDVATYYCYQYNSGRAFGGGTKLELK
notes: Rat monoclonal antibody from hybridoma, IgG1/kappa; also called 9G5.F2.C1.F4; anti-TEM-1 clone 9G5
For the molecule B2, the binding entry in assay [1] and in assay [2] was “binds” throughout.

These data come from US20150337051A1 (MORPHOTEK, published 2015).
